Test results: publication PMC6773851
No constants are given. Whether binding was seen depends on the method and setting. For some of these results: Binding seen in cells or lysates may run through a third protein. Some binding calls cover weakened binding; strength is not graded here. One block for each substance: values may come before it.

Protein sequences, listed by entry. Tags and fused reporters are not part of them.
UniProt P0A6X3: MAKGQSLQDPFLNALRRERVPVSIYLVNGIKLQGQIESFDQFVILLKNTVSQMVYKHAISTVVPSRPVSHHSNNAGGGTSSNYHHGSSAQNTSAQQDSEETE
UniProt P0A8V2: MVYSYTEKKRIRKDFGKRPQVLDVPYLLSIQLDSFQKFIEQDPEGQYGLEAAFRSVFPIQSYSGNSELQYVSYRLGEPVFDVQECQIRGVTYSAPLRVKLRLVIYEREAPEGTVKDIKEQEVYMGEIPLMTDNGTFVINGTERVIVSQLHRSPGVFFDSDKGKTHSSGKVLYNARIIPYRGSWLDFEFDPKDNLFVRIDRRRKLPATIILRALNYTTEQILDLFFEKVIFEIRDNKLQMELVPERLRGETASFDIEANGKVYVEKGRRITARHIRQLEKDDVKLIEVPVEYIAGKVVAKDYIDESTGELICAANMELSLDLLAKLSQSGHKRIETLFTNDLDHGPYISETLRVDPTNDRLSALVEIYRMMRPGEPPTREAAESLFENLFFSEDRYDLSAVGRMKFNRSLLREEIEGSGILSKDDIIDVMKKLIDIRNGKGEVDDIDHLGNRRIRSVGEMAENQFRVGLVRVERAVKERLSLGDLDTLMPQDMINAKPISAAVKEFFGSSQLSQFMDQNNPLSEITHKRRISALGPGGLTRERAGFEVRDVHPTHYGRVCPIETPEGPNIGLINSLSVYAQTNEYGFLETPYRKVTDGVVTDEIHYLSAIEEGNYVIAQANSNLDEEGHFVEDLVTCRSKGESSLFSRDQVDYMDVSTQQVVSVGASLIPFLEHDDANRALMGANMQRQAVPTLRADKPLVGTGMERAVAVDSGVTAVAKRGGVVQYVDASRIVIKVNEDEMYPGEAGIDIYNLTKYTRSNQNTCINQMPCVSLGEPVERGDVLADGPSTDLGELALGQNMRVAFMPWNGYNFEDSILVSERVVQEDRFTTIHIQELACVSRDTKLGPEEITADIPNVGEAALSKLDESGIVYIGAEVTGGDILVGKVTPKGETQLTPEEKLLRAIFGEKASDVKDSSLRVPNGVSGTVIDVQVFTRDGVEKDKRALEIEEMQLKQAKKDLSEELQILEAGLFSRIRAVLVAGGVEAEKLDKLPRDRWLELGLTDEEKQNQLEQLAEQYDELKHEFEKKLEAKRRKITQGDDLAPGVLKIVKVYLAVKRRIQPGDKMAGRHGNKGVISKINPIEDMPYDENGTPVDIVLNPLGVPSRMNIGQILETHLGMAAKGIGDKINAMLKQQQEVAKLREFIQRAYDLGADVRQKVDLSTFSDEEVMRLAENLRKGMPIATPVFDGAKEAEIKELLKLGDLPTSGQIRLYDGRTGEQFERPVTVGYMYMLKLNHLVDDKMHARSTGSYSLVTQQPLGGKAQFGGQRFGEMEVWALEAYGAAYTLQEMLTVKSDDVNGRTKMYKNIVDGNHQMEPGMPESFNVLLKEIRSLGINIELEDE
UniProt P0A8T7: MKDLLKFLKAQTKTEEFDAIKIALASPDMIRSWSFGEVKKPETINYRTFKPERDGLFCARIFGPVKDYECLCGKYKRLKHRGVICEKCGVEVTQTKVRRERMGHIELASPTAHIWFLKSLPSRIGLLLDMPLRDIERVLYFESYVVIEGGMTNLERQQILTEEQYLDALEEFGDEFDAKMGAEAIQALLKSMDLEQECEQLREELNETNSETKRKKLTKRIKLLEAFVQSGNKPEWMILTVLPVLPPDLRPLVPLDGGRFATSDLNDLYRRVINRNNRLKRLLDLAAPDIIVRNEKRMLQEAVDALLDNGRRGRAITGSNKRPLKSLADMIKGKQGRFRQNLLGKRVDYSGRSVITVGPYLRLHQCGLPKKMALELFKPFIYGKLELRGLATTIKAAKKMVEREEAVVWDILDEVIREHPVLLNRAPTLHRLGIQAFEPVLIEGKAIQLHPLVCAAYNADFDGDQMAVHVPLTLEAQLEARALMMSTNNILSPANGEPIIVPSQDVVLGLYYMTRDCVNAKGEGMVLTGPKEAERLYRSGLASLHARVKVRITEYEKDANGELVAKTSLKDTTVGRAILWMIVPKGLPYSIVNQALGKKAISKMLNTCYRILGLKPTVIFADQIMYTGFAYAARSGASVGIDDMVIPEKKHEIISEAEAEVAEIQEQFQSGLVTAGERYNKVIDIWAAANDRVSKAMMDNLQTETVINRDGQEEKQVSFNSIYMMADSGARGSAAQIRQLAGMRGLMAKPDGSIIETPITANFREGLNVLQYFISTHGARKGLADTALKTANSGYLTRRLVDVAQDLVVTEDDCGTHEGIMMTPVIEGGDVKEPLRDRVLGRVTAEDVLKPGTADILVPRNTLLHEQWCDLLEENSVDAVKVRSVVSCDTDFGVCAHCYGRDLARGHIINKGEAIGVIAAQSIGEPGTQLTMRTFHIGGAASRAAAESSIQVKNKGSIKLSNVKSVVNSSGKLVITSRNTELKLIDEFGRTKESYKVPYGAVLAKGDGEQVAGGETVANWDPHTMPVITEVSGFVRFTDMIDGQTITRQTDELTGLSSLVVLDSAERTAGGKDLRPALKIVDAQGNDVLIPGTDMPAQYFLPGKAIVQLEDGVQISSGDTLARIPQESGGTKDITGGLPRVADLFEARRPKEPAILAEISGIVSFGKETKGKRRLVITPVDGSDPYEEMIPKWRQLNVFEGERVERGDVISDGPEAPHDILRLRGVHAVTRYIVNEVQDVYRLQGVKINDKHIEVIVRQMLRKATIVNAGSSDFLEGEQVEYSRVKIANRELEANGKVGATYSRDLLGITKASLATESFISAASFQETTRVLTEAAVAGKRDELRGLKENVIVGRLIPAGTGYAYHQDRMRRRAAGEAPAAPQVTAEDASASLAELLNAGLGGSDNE
UniProt P0ABB0: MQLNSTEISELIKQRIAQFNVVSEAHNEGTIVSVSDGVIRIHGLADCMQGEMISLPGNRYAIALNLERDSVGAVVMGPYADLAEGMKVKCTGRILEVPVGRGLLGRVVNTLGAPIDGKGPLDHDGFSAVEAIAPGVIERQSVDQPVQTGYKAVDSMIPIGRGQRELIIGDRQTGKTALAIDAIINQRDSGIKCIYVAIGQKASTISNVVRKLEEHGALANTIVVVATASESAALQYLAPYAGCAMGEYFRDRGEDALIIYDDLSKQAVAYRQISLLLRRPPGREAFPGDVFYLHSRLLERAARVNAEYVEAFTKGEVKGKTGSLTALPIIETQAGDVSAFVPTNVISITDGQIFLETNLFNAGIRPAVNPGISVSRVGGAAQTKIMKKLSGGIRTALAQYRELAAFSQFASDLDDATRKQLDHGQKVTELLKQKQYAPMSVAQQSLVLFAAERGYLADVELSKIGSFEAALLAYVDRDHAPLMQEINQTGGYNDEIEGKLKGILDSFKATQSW
UniProt P0ABB4: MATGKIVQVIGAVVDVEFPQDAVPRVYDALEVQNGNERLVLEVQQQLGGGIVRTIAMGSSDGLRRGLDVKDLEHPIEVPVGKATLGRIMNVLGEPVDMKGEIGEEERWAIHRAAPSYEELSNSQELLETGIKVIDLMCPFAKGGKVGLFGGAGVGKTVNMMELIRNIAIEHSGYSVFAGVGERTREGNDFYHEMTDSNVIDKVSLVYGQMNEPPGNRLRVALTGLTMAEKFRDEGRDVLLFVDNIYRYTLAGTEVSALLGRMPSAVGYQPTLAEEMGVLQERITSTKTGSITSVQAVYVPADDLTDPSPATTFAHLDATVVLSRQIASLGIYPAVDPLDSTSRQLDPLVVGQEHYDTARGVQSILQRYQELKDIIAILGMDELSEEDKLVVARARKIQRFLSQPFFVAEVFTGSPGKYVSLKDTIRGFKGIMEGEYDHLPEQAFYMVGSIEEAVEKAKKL
UniProt P0AES4: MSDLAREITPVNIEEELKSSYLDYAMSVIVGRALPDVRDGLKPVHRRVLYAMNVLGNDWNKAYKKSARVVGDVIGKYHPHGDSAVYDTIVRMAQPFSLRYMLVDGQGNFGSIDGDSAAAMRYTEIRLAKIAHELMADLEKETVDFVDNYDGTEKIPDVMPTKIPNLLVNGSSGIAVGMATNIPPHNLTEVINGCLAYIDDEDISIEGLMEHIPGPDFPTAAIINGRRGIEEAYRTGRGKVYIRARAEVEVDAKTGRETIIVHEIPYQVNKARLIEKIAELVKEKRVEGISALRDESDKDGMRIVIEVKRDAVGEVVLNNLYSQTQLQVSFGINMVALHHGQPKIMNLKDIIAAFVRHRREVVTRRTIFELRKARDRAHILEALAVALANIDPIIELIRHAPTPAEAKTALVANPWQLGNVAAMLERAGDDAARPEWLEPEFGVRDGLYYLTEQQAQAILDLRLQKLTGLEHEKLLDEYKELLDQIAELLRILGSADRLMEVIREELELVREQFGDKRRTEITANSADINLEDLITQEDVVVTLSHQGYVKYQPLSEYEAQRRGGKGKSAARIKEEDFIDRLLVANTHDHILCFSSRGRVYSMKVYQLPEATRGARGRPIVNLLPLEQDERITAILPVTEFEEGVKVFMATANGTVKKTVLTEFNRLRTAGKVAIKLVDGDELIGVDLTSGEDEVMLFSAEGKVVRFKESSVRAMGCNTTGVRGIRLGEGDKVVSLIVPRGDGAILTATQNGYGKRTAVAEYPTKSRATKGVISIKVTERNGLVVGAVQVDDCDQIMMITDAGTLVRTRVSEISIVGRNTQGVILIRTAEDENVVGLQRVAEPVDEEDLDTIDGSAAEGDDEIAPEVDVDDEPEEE
UniProt P0A6P9: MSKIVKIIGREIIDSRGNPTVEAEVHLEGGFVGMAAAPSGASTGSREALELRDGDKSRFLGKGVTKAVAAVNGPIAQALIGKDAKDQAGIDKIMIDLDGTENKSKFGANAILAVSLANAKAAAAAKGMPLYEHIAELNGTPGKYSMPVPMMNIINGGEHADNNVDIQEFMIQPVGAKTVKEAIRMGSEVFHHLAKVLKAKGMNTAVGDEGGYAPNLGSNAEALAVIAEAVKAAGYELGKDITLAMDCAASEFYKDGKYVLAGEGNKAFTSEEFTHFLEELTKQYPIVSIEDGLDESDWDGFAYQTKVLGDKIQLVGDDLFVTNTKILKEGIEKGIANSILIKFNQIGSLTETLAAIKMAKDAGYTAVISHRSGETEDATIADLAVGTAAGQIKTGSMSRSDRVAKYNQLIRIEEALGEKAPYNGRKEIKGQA
UniProt P0ABA4: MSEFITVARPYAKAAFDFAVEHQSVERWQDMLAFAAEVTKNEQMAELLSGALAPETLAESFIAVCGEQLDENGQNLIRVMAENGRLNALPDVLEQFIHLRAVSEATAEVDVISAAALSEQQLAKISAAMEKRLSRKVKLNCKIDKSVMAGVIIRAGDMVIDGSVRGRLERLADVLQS
UniProt P0ABA0: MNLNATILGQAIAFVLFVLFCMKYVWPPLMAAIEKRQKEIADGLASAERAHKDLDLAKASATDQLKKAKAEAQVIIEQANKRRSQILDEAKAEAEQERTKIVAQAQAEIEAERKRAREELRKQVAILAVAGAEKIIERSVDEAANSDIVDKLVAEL
UniProt P0A6Y8: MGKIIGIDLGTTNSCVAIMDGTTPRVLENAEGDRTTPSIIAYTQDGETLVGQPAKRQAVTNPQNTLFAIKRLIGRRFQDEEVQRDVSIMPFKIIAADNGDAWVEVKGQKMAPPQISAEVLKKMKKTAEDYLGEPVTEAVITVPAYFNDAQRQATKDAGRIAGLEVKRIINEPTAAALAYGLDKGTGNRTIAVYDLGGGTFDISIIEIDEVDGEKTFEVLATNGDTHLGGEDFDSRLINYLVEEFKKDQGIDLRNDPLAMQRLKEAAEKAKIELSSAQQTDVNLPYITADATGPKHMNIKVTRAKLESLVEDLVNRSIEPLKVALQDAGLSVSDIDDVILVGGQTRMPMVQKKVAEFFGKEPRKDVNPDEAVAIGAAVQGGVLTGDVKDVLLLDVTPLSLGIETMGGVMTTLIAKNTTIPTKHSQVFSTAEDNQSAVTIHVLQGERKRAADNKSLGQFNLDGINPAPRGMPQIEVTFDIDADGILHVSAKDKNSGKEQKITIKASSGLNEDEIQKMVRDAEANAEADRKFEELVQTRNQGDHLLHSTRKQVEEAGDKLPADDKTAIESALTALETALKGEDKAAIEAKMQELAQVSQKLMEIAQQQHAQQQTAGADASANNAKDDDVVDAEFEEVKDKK
UniProt P0A7G6: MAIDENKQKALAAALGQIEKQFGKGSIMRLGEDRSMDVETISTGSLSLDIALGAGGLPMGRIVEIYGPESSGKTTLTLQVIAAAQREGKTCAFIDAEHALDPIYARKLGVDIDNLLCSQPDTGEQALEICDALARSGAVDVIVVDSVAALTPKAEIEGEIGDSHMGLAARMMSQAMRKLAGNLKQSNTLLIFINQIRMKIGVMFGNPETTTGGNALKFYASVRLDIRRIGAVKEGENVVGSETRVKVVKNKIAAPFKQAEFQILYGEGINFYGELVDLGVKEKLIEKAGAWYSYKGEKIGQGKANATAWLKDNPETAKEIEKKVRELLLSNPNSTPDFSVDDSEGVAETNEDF

Legend:
[1] = target: HfqH6 (His6-tagged Hfq expressed from pHfqH6) (E. coli) (UniProt P0A6X3); test: cross-linking; in vivo, 0.25 mM DSP in PBS, 1 h at 37 °C, late exponential phase; HfqH6 complexes enriched on Ni-Agarose; with or without 50 mM DTT; SDS-PAGE, 24 gel slices analysed by mass spectrometry; no RNase A treatment
[2] = target: T1, Poly(A)polymerase, PAP (purified) (E. coli) (UniProt P0ABF1); test: far-Western, overlay or dot blot; purified proteins on 12.5% SDS-PAGE, blotted to nitrocellulose, denatured with guanidine-HCl and renatured, incubated overnight at 4 °C with 20 µg purified Hfq in 20 ml protein-binding buffer; bound Hfq detected with an anti-Hfq polyclonal antibody; both purified
T1 sequence: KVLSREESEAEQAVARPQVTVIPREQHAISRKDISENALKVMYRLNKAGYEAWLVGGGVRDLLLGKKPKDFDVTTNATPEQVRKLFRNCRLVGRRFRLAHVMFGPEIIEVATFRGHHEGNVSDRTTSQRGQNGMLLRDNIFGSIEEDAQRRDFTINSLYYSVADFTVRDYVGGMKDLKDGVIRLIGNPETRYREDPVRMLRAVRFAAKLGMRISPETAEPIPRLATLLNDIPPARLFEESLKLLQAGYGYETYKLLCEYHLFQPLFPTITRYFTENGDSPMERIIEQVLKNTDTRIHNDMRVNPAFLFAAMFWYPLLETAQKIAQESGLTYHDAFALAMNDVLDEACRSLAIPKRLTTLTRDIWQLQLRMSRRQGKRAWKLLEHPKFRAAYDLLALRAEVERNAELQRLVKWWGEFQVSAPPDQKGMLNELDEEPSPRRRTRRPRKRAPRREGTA

[3] = target: RNA polymerase β subunit (from the purified polymerase, resolved on the gel) (E. coli) (UniProt P0A8V2); test: as above
[4] = target: RNA polymerase β′ subunit, C-terminally His-tagged (from the purified polymerase, resolved on the gel) (E. coli) (UniProt P0A8T7); test: as above
[5] = target: T1, Poly(A)polymerase, PAP (purified) (E. coli); test: condition: only the 53.8 kDa monomeric band of poly(A) polymerase on the blot; far-Western, overlay or dot blot; purified proteins on 12.5% SDS-PAGE, blotted to nitrocellulose, denatured with guanidine-HCl and renatured, incubated overnight at 4 °C with 20 µg purified Hfq in 20 ml protein-binding buffer; bound Hfq detected with an anti-Hfq polyclonal antibody; both purified
[6] = target: Ec-HfqHis6 (purified) (E. coli) (UniProt P0A6X3); test: MST; S1 and RNA polymerase with Hfq, with and without total RNA; data not shown; both purified

- binding [1]: binds
Substance: ATP synthase subunit alpha (from UniProt P0ABB0 1-513)

- binding [1]: binds
Substance: ATP synthase subunit beta (from UniProt P0ABB4 1-460)

- binding [1]: binds
Substance: DNA gyrase subunit A (from UniProt P0AES4 1-875)

- binding [1]: binds
Substance: Enolase (Eno) (from UniProt P0A6P9 1-432)

- binding [6]: binds weakly
Substance: RNA polymerase (α, β, β′-His6, ω), purified (from UniProt P0A7Z4 1-329; P0A8V2 1-1342; P0A8T7 1-1407; P0A800 1-91) (complex)

The remaining lines, values behind:

Substance: ATP synthase subunit ATPD (from UniProt P0ABA4 1-177)
- binding [1]: binds

Substance: ATP synthase subunit ATPF (from UniProt P0ABA0 1-156)
- binding [1]: binds

Substance: Chaperone protein dnaK (from UniProt P0A6Y8 1-638)
- binding [1]: binds

Substance: Ec-HfqHis6 (purified) (from UniProt P0A6X3 1-102)
- binding [2]: binds weakly
- binding [3]: binds weakly
- binding [4]: binds weakly
- binding [5]: no binding

Substance: RecA (from UniProt P0A7G6 1-353)
- binding [1]: binds
